PMC6203356
No constants are given. Whether binding was seen depends on the method and setting. In cells and extracts the contact can be indirect. Some binding calls cover weakened binding; strength is not graded here.

Columns and labels:
[1] = biological target: CENP-A (endogenous, soluble pre-assembly fraction) (human (endogenous in SW480)) (UniProt P49450); experiment: co-IP; CENP-A IP (ACA serum) or mock IP from the soluble fraction (PBS, 0.5% NP-40) of SW480 cells treated 72 hours with control or HJURP siRNA; Western blot for the chaperones
GFP-CENP-A = GFP-CENP-A (UniProt P49450); experiment: co-IP; IP of GFP-CENP-A or CENP-A-mCherry expressed in SW480 cells; Western blot for DAXX and HIRA
CENP-A-mCherry = CENP-A-mCherry (UniProt P49450); experiment: as above

Measured: binding

DAXX (endogenous) (from UniProt Q9UER7 1-740)
binds: all assays above
